Earlier results as cited in patent publication US7517540B2, “Cranberry seed oil extract and compositions containing components thereof” (priority 1999, dated 2009).

- IC50, inhibition of proliferation of MCF-7 (MCF-7; MCF-7 (estrogen receptor-positive), combinations with tamoxifen 1:1): 0.04 ± 0.001 mg/L
- IC50, inhibition of proliferation of MDA-MB-435 (MDA-MB-435; MDA-MB-435 (estrogen receptor-negative), combinations with tamoxifen 1:1): 90 ± 4 mg/L
Structure (SMILES): CC/C(=C(\c1ccccc1)c1ccc(OCCN(C)C)cc1)c1ccccc1 [Tamoxifen]
- Inhibition of proliferation, MCF-7 (Table 5) (MCF-7; MCF-7, alone, 1:1 or 1:1:1 combinations): 0.04
- Inhibition of proliferation, MDA-MB-435 (Table 5) (MDA-MB-435; MDA-MB-435, alone, 1:1 or 1:1:1 combinations): 90
